The nature of data set [1]: Evaluation by trained and/or certified flavor or fragrance chemists or master perfumers; categorization by commercial prospect. The settings on record: for Rating (category of commercial prospect): evaluation by trained flavor or fragrance chemists or master perfumers.
A further data set concerns odor evaluation panel. In words: Odor evaluation panel rating of odorants by Rate-All-That-Apply (RATA) method with 55-word odor lexicon, plus intensity and pleasantness. The arrangement: species or system human. The settings on record: for Fruity: mean panelist score for odor label fruity (RATA).
[2] abbreviates: mean panelist score for odor label floral (RATA).
The mark [3] stands for this setting: mean panelist score for odor label spicy (RATA).
[4] abbreviates: mean panelist score for odor label sweet (RATA).
[5] abbreviates: mean panelist score for odor pleasantness.
The mark [6] stands for this setting: category of commercial prospect, (A) highest > (B) > (C) > (D) lowest, (E) requires further study.

Where two headings read alike, the source gives them in different places.

In the case of `COc1ccc2c(c1)C(=O)CCC2` [Compound 976, 7-methoxy-3,4-dihydro-2H-naphthalen-1-one], in data set [1], the “Rating (category of commercial prospect)” value was “(B)”. For the same compound, the Floral in the data set with odor evaluation panel (setting [2]) is listed as 0.086. In addition, the Fruity with odor evaluation panel is reported as 0.143. The Spicy in the data set with odor evaluation panel (setting [3]) came to 0.171. Besides, the Sweet in the data set with odor evaluation panel (setting [4]) is 0.143. Moreover, in the data set on odor evaluation panel (setting [5]), the Pleasantness was 4.826.
On to `COCc1ccc(COC)cc1` [Compound 783, 1,4-bis(methoxymethyl)benzene], for which the “Rating (category of commercial prospect)” value in data set [1] is reported as “(D)”. Besides, the Floral in the data set on odor evaluation panel (setting [2]) turned out to be 1.031. Besides, the Fruity in the data set with odor evaluation panel is given as 0.844. Moreover, the Spicy in the data set on odor evaluation panel (setting [3]) worked out at 0.844. In the data set on odor evaluation panel (setting [4]), the Sweet worked out at 1.25. Besides, the Pleasantness with odor evaluation panel (setting [5]) is 6.062.
With `CC(C)COC(=O)c1ccccc1C(=O)OCC(C)C` [Compound 378, bis(2-methylpropyl) benzene-1,2-dicarboxylate], the Rating entry in data set [1] (setting [6]) is recorded as “(D)”. In addition, the Floral in the data set with odor evaluation panel (setting [2]) is given as 0.125. Besides, in the data set on odor evaluation panel, the Fruity was 0.25. In addition, in the data set on odor evaluation panel (setting [3]), the Spicy is listed as 0.062. The Sweet in the data set with odor evaluation panel (setting [4]) stood at 0.344. Also, the Pleasantness with odor evaluation panel (setting [5]) is listed as 5.672.
On to `CCC#CCO` [Compound 47, pent-2-yn-1-ol], for which the Rating entry in data set [1] (setting [6]) is recorded as “(B)”. Further, the Floral with odor evaluation panel (setting [2]) is listed as 0.156. In the data set on odor evaluation panel, the Fruity is listed as 0.219. The Spicy in the data set with odor evaluation panel (setting [3]) came out at 0.344. Also, the Sweet with odor evaluation panel (setting [4]) was 0.312. Moreover, the Pleasantness in the data set on odor evaluation panel (setting [5]) was found to be 4.519.
`O=[N+]([O-])c1ccc(C=NO)o1` [Compound 253, N-[(5-nitrofuran-2-yl)methylidene]hydroxylamine]: in data set [1] (setting [6]), the Rating result is recorded as “(D)”. In the data set with odor evaluation panel (setting [2]), the Floral is 0.031. For the same compound, the Fruity with odor evaluation panel amounted to 0. The Spicy with odor evaluation panel (setting [3]) was 0.438. In the data set on odor evaluation panel (setting [4]), the Sweet was found to be 0.062. Also, the Pleasantness in the data set on odor evaluation panel (setting [5]) amounted to 4.369.
For `COc1cc(C)cc(C)c1` [Compound 649, 1-methoxy-3,5-dimethylbenzene], the “Rating (category of commercial prospect)” value in data set [1] is “(D)”. In addition, the Floral in the data set on odor evaluation panel (setting [2]) stood at 0.469. Besides, the Fruity in the data set with odor evaluation panel worked out at 0.188. In addition, the Spicy in the data set on odor evaluation panel (setting [3]) stood at 0.375. Besides, the Sweet in the data set on odor evaluation panel (setting [4]) was found to be 0.531. Besides, in the data set with odor evaluation panel (setting [5]), the Pleasantness is on record as 4.731.
As for `Cc1ccccc1OC(C)C` [Compound 87, 1-methyl-2-propan-2-yloxybenzene], the Rating result in data set [1] (setting [6]) is “(D)”. For the same compound, the Floral with odor evaluation panel (setting [2]) amounted to 0.444. Also, the Fruity in the data set with odor evaluation panel was 0.056. In the data set on odor evaluation panel (setting [3]), the Spicy is 0.139. Further, the Sweet with odor evaluation panel (setting [4]) amounted to 0.278.
With `Cc1c[nH]c(=O)c(N)c1` [Compound 439, 3-amino-5-methyl-1H-pyridin-2-one], the Rating entry in data set [1] (setting [6]) is on record as “(D)”. The Floral with odor evaluation panel (setting [2]) was found to be 0.333. The Fruity with odor evaluation panel worked out at 0. Besides, the Spicy in the data set with odor evaluation panel (setting [3]) turned out to be 0.273. Further, in the data set on odor evaluation panel (setting [4]), the Sweet was 0.576. In the data set with odor evaluation panel (setting [5]), the Pleasantness turned out to be 4.355.
With `CNC(=S)N(C)C` [Compound 403, 1,1,3-trimethylthiourea], in data set [1] (setting [6]), the Rating entry was “(D)”. The Floral in the data set on odor evaluation panel (setting [2]) worked out at 0. Moreover, in the data set with odor evaluation panel, the Fruity is 0. Moreover, in the data set with odor evaluation panel (setting [3]), the Spicy worked out at 0. Besides, the Sweet in the data set on odor evaluation panel (setting [4]) came to 0.
Turning to `CC(C)(C)C(=O)C(C)(C)C` [Compound 315, 2,2,4,4-tetramethylpentan-3-one], in data set [1], the Rating entry is “(D)”. Further, in the data set on odor evaluation panel, the Floral came out at 0, the Pleasantness is on record as 6.306, the Spicy was determined as 0.029 and the Sweet was found to be 0.514.
As for `CCOC(=O)C[C@H](O)CC#N` [Compound 132, ethyl (3R)-4-cyano-3-hydroxybutanoate], the Rating result in data set [1] (setting [6]) is given as “(C)”. Further, the Floral in the data set on odor evaluation panel (setting [2]) is listed as 0.281. In addition, in the data set with odor evaluation panel, the Fruity came out at 0.562. Besides, the Spicy with odor evaluation panel (setting [3]) came out at 0. Further, the Sweet in the data set on odor evaluation panel (setting [4]) stood at 0.594. The Pleasantness in the data set on odor evaluation panel (setting [5]) is given as 6.103.
With `CCOC=Nc1ccccc1` [Compound 165, ethyl N-phenylmethanimidate], the Rating entry in data set [1] (setting [6]) is on record as “(B)”. Further, in the data set on odor evaluation panel (setting [2]), the Floral is on record as 0.278. Further, in the data set on odor evaluation panel, the Fruity worked out at 1.194. The Spicy in the data set with odor evaluation panel (setting [3]) was 0. In addition, the Sweet in the data set on odor evaluation panel (setting [4]) amounted to 1.278.
The corresponding values for `Oc1cccc2c1CCCC2` [Compound 258, 5,6,7,8-tetrahydronaphthalen-1-ol] are “(D)”, 0, 0.083, 0.25 and 0.278.
On to `CC1OC(C)OC(C)OC(C)O1` (stereo not drawn) [Compound 275, 2,4,6,8-tetramethyl-1,3,5,7-tetraoxocane], for which the Rating entry in data set [1] (setting [6]) is “(A)”. Besides, in the data set with odor evaluation panel (setting [2]), the Floral was found to be 0.29. In addition, the Fruity with odor evaluation panel came out at 0.548. Besides, the Spicy with odor evaluation panel (setting [3]) stood at 0. The Sweet in the data set with odor evaluation panel (setting [4]) came out at 1.065. Also, in the data set on odor evaluation panel (setting [5]), the Pleasantness was determined as 5.965.
Take `CCC(C)(O)C(=O)O` (stereo not drawn) [Compound 239, 2-hydroxy-2-methylbutanoic acid]: in data set [1] (setting [6]), the Rating entry is listed as “(D)”. In the data set on odor evaluation panel (setting [2]), the Floral is 0. Further, the Fruity in the data set with odor evaluation panel is 0.543. The Spicy with odor evaluation panel (setting [3]) is on record as 0. In the data set with odor evaluation panel (setting [4]), the Sweet is given as 0.286. For the same compound, the Pleasantness in the data set on odor evaluation panel (setting [5]) was found to be 5.266.
Regarding `C=CC(=O)NC(C)C` [Compound 569, N-propan-2-ylprop-2-enamide], the “Rating (category of commercial prospect)” value in data set [1] is “(D)”. Moreover, the Floral with odor evaluation panel (setting [2]) was found to be 0.139. In the data set with odor evaluation panel, the Fruity is on record as 0. In addition, the Spicy in the data set on odor evaluation panel (setting [3]) is reported as 0.139. The Sweet with odor evaluation panel (setting [4]) is listed as 0.
Regarding `CC(C)(C)c1ccc(CS)cc1` [Compound 638, (4-tert-butylphenyl)methanethiol], the “Rating (category of commercial prospect)” value in data set [1] is recorded as “(D)”. In the data set on odor evaluation panel (setting [2]), the Floral turned out to be 0. Moreover, the Fruity in the data set on odor evaluation panel turned out to be 0. Further, in the data set on odor evaluation panel (setting [3]), the Spicy turned out to be 0.361. Further, the Sweet in the data set on odor evaluation panel (setting [4]) was 0.083.
`O=Cc1ccc2c(c1)CCO2` [Compound 380, 2,3-dihydro-1-benzofuran-5-carbaldehyde]: in data set [1] (setting [6]), the Rating result is “(D)”. The Floral with odor evaluation panel (setting [2]) was found to be 0.467. Moreover, the Fruity with odor evaluation panel turned out to be 0.967. The Spicy with odor evaluation panel (setting [3]) is listed as 0.2. The Sweet in the data set on odor evaluation panel (setting [4]) stood at 1.4. Further, the Pleasantness in the data set on odor evaluation panel (setting [5]) was determined as 6.093.
`OCC1CC=CCC1` (stereo not drawn) [Compound 245, cyclohex-3-en-1-ylmethanol]: the Rating result in data set [1] (setting [6]) was “(D)”. The Floral with odor evaluation panel (setting [2]) came to 0.389. Also, in the data set on odor evaluation panel, the Fruity came out at 0.333. In the data set with odor evaluation panel (setting [3]), the Spicy worked out at 0.194. Also, the Sweet in the data set on odor evaluation panel (setting [4]) was determined as 0.611.
As for `CCCC(O)C1CCCCC1` (stereo not drawn) [Compound 141, 1-cyclohexylbutan-1-ol], the Rating entry in data set [1] (setting [6]) is “(A)”. Further, the Floral in the data set with odor evaluation panel (setting [2]) is 0.531. In the data set on odor evaluation panel, the Fruity is 2.375. Further, the Spicy in the data set with odor evaluation panel (setting [3]) was 0.031. In addition, the Sweet in the data set on odor evaluation panel (setting [4]) is 1.875. Besides, the Pleasantness with odor evaluation panel (setting [5]) stood at 6.747.
For `COc1ccc(O)cc1OC` [Compound 487, 3,4-dimethoxyphenol], the Rating entry in data set [1] (setting [6]) is on record as “(B)”. Besides, the Floral with odor evaluation panel (setting [2]) is listed as 0. The Fruity in the data set on odor evaluation panel turned out to be 0. Besides, in the data set on odor evaluation panel (setting [3]), the Spicy is reported as 0.167. The Sweet in the data set on odor evaluation panel (setting [4]) worked out at 0.25.
As for `ON=C1CCCCC1` [Compound 515, N-cyclohexylidenehydroxylamine], the Rating entry in data set [1] (setting [6]) is recorded as “(C)”. In addition, in the data set on odor evaluation panel (setting [2]), the Floral stood at 0. Also, the Fruity in the data set on odor evaluation panel is on record as 0.067. Further, in the data set on odor evaluation panel (setting [3]), the Spicy came to 0.433. The Sweet in the data set with odor evaluation panel (setting [4]) turned out to be 0.1. Moreover, the Pleasantness in the data set with odor evaluation panel (setting [5]) was 3.443.

The values are drawn from patent US20250075147A1, “FRAGRANCE AND FLAVOR COMPOSITIONS COMPRISING NEW FLAVOR AND FRAGRANCE INGREDIENTS” (priority 2023, published 2025).
